From patent US20150232546A1 (THROMBOGENICS, published 2015)
Positions count from the first letter of the chain named. No constants are given. Whether binding was seen depends on the method and setting. Some binding calls cover weakened binding; strength is not graded here.

Amino acid sequences for entries named in this document (tags omitted). Residues count along the entry.
UniProt Q9NRA1, residues 23-345: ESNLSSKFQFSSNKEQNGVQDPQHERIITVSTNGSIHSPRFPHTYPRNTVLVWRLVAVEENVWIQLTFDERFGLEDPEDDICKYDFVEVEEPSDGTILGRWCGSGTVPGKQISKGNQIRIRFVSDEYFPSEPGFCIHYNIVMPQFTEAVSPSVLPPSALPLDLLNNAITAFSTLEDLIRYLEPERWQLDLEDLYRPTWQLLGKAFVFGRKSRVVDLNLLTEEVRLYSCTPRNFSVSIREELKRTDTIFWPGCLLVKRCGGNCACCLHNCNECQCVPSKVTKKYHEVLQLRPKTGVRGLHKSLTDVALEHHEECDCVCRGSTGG

Experiments:
[1] = target: full-length human PDGF-C (Example 6) (human) (UniProt Q9NRA1); assay: ELISA
[2] = target: T1, human PDGF-C peptide no. 33 (human); assay: peptide ELISA
T1 sequence (peptide, N-terminally biotinylated): LDLLNNAITAFSTLE

[3] = target: T2, human PDGF-C peptide no. 11 (human); assay: peptide ELISA
T2 sequence (peptide, N-terminally biotinylated): LVWRLVAVEENVWIQ

[4] = target: T3, human PDGF-C peptide no. 39 (human); assay: peptide ELISA
T3 sequence (peptide, N-terminally biotinylated): EDLYRPTWQLLGKAF

[5] = target: T4, human PDGF-C peptide no. 47 (human); assay: peptide ELISA
T4 sequence (peptide, N-terminally biotinylated): RNFSVSIREELKRTD

[6] = target: T5, human PDGF-C peptide no. 54 (human); assay: peptide ELISA
T5 sequence (peptide, N-terminally biotinylated): LHNCNECQCVPSKVT

[7] = target: T6, human PDGF-C peptide no. 2 (human); assay: peptide ELISA
T6 sequence (peptide, N-terminally biotinylated): SKFQFSSNKEQNGVQ

[8] = target: T7, human PDGF-C peptide no. 34 (human); assay: peptide ELISA
T7 sequence (peptide, N-terminally biotinylated): NAITAFSTLEDLIRY

[9] = target: T8, human PDGF-C peptide no. 38 (human); assay: peptide ELISA
T8 sequence (peptide, N-terminally biotinylated): WQLDLEDLYRPTWQL

[10] = target: T9, human PDGF-C peptide no. 22 (human); assay: peptide ELISA
T9 sequence (peptide, N-terminally biotinylated): TVPGKQISKGNQIRI

[11] = target: T10, human PDGF-C peptide no. 40 (human); assay: peptide ELISA
T10 sequence (peptide, N-terminally biotinylated): PTWQLLGKAFVFGRK

[12] = target: T11, human PDGF-C peptide no. 19 (human); assay: peptide ELISA
T11 sequence (peptide, N-terminally biotinylated): EPSDGTILGRWCGSG

[13] = target: T12, human PDGF-C peptide no. 63 (human); assay: peptide ELISA
T12 sequence (peptide, N-terminally biotinylated): EECDCVCRGSTGG

[14] = target: T13, human PDGF-C peptide no. 60 (human); assay: peptide ELISA
T13 sequence (peptide, N-terminally biotinylated): RGLHKSLTDVALEHH

[15] = target: T14, human PDGF-C peptide no. 57 (human); assay: peptide ELISA
T14 sequence (peptide, N-terminally biotinylated): KKYHEVLQLRPKTGV

[16] = target: T15, human PDGF-C peptide no. 37 (human); assay: peptide ELISA
T15 sequence (peptide, N-terminally biotinylated): LEPERWQLDLEDLYR

[17] = target: T16, human PDGF-C peptide no. 45 (human); assay: peptide ELISA
T16 sequence (peptide, N-terminally biotinylated): EEVRLYSCTPRNFSV

[18] = target: T17, human PDGF-C peptide no. 7 (human); assay: peptide ELISA
T17 sequence (peptide, N-terminally biotinylated): STNGSIHSPRFPHTY

[19] = target: T18, human PDGF-C peptide no. 9 (human); assay: peptide ELISA
T18 peptide: Biotin-FPHTYPRNTVLVWRL

[20] = target: T19, human PDGF-C peptide no. 25 (human); assay: peptide ELISA
T19 sequence (peptide, N-terminally biotinylated): RFVSDEYFPSEPGFC

[21] = target: T20, human PDGF-C peptide no. 10 (human); assay: peptide ELISA
T20 sequence (peptide, N-terminally biotinylated): PRNTVLVWRLVAVEE

[22] = target: T21, human PDGF-C peptide no. 35 (human); assay: peptide ELISA
T21 sequence (peptide, N-terminally biotinylated): FSTLEDLIRYLEPER

[23] = target: T22, human PDGF-C peptide no. 52 (human); assay: peptide ELISA
T22 sequence (peptide, N-terminally biotinylated): KRCGGNCACCLHNCN

[24] = target: T23, human PDGF-C peptide no. 51 (human); assay: peptide ELISA
T23 sequence (peptide, N-terminally biotinylated): GCLLVKRCGGNCACC

[25] = target: T24, human PDGF-C peptide no. 3 (human); assay: peptide ELISA
T24 sequence (peptide, N-terminally biotinylated): SSNKEQNGVQDPQHE

[26] = target: T25, human PDGF-C peptide no. 29 (human); assay: peptide ELISA
T25 sequence (peptide, N-terminally biotinylated): VMPQFTEAVSPSVLP

[27] = target: T26, human PDGF-C peptide no. 59 (human); assay: peptide ELISA
T26 sequence (peptide, N-terminally biotinylated): PKTGVRGLHKSLTDV

[28] = target: T27, human PDGF-C peptide no. 49 (human); assay: peptide ELISA
T27 sequence (peptide, N-terminally biotinylated): LKRTDTIFWPGCLLV

[29] = target: T28, human PDGF-C peptide no. 4 (human); assay: peptide ELISA
T28 sequence (peptide, N-terminally biotinylated): QNGVQDPQHERIITV

[30] = target: T29, human PDGF-C peptide no. 24 (human); assay: peptide ELISA
T29 sequence (peptide, N-terminally biotinylated): NQIRIRFVSDEYFPS

[31] = target: T30, human PDGF-C peptide no. 18 (human); assay: peptide ELISA
T30 sequence (peptide, N-terminally biotinylated): FVEVEEPSDGTILGR

[32] = target: T31, human PDGF-C peptide no. 6 (human); assay: peptide ELISA
T31 sequence (peptide, N-terminally biotinylated): RIITVSTNGSIHSPR

[33] = target: T32, human PDGF-C peptide no. 5 (human); assay: peptide ELISA
T32 sequence (peptide, N-terminally biotinylated): DPQHERIITVSTNGS

[34] = target: T33, human PDGF-C peptide no. 30 (human); assay: peptide ELISA
T33 sequence (peptide, N-terminally biotinylated): TEAVSPSVLPPSALP

[35] = target: T34, human PDGF-C peptide no. 12 (human); assay: peptide ELISA
T34 sequence (peptide, N-terminally biotinylated): VAVEENVWIQLTFDE

[36] = target: T35, human PDGF-C peptide no. 42 (human); assay: peptide ELISA
T35 sequence (peptide, N-terminally biotinylated): VFGRKSRVVDLNLLT

[37] = target: T36, human PDGF-C peptide no. 26 (human); assay: peptide ELISA
T36 sequence (peptide, N-terminally biotinylated): EYFPSEPGFCIHYNI

[38] = target: T37, human PDGF-C peptide no. 55 (human); assay: peptide ELISA
T37 sequence (peptide, N-terminally biotinylated): ECQCVPSKVTKKYHE

[39] = target: T38, human PDGF-C peptide no. 50 (human); assay: peptide ELISA
T38 sequence (peptide, N-terminally biotinylated): TIFWPGCLLVKRCGG

[40] = target: T39, human PDGF-C peptide no. 48 (human); assay: peptide ELISA
T39 sequence (peptide, N-terminally biotinylated): SIREELKRTDTIFWP

[41] = target: T40, human PDGF-C peptide no. 36 (human); assay: peptide ELISA
T40 sequence (peptide, N-terminally biotinylated): DLIRYLEPERWQLDL

[42] = target: T41, human PDGF-C peptide no. 62 (human); assay: peptide ELISA
T41 sequence (peptide, N-terminally biotinylated): ALEHHEECDCVCRGS

[43] = target: T42, human PDGF-C peptide no. 14 (human); assay: peptide ELISA
T42 sequence (peptide, N-terminally biotinylated): LTFDERFGLEDPEDD

[44] = target: T43, human PDGF-C peptide no. 23 (human); assay: peptide ELISA
T43 sequence (peptide, N-terminally biotinylated): QISKGNQIRIRFVSD

[45] = target: T44, human PDGF-C peptide no. 28 (human); assay: peptide ELISA
T44 sequence (peptide, N-terminally biotinylated): IHYNIVMPQFTEAVS

[46] = target: T45, human PDGF-C peptide no. 31 (human); assay: peptide ELISA
T45 sequence (peptide, N-terminally biotinylated): PSVLPPSALPLDLLN

[47] = target: T46, human PDGF-C peptide no. 20 (human); assay: peptide ELISA
T46 sequence (peptide, N-terminally biotinylated): TILGRWCGSGTVPGK

[48] = target: T47, human PDGF-C peptide no. 46 (human); assay: peptide ELISA
T47 sequence (peptide, N-terminally biotinylated): YSCTPRNFSVSIREE

B1: anti-PDGF-C antibody 29H1 (antibody, IgG1, V domains shown)
VH: EVQLVESGGDLVKPGGSLKLSCAASGFTFSNYGMSWVRQTPDKRLEWVATIGSGGHYTYYPDSVKGRFTISRDSAKSTLYLQMSSLRSDDTAIYYCARQAPLWDCSDYWGQGTTLTVSS
VL: DVLMTQTPLSLPVSLGDQASISCRSNQSIVHSNGDTYLEWYLQKPGQSPNLLIYKVSNRFSGVPDRFSGSGSGTDFTLKISRVEAEDLGVYYCFQGSHVPPTFGGGTKLEIK
notes: Mouse monoclonal from hybridoma, IgG1, kappa; also called mAb 29H1; hybridoma LMBP 9487CB
- binding [1]: binds
- binding [2]: no binding (tested: 1 µg/mL)
- binding [3]: no binding (tested: 1 µg/mL)
- binding [4]: no binding (tested: 1 µg/mL)
- binding [5]: no binding (tested: 1 µg/mL)
- binding [6]: no binding (tested: 1 µg/mL)
- binding [7]: no binding (tested: 1 µg/mL)
- binding [8]: no binding (tested: 1 µg/mL)
- binding [9]: no binding (tested: 1 µg/mL)
- binding [10]: no binding (tested: 1 µg/mL)
- binding [11]: no binding (tested: 1 µg/mL)
- binding [12]: no binding (tested: 1 µg/mL)
- binding [13]: no binding (tested: 1 µg/mL)
- binding [14]: no binding (tested: 1 µg/mL)
- binding [15]: no binding (tested: 1 µg/mL)
- binding [16]: no binding (tested: 1 µg/mL)
- binding [17]: no binding (tested: 1 µg/mL)
- binding [18]: no binding (tested: 1 µg/mL)
- binding [19]: no binding (tested: 1 µg/mL)
- binding [20]: no binding (tested: 1 µg/mL)
- binding [21]: no binding (tested: 1 µg/mL)
- binding [22]: no binding (tested: 1 µg/mL)
- binding [23]: no binding (tested: 1 µg/mL)
- binding [24]: no binding (tested: 1 µg/mL)
- binding [25]: no binding (tested: 1 µg/mL)
- binding [26]: no binding (tested: 1 µg/mL)
- binding [27]: no binding (tested: 1 µg/mL)
- binding [28]: no binding (tested: 1 µg/mL)
- binding [29]: no binding (tested: 1 µg/mL)
- binding [30]: no binding (tested: 1 µg/mL)
- binding [31]: no binding (tested: 1 µg/mL)
- binding [32]: no binding (tested: 1 µg/mL)
- binding [33]: no binding (tested: 1 µg/mL)
- binding [34]: no binding (tested: 1 µg/mL)
- binding [35]: no binding (tested: 1 µg/mL)
- binding [36]: no binding (tested: 1 µg/mL)
- binding [37]: no binding (tested: 1 µg/mL)
- binding [38]: no binding (tested: 1 µg/mL)
- binding [39]: no binding (tested: 1 µg/mL)
- binding [40]: no binding (tested: 1 µg/mL)
- binding [41]: no binding (tested: 1 µg/mL)
- binding [42]: no binding (tested: 1 µg/mL)
- binding [43]: no binding (tested: 1 µg/mL)
- binding [44]: no binding (tested: 1 µg/mL)
- binding [45]: no binding (tested: 1 µg/mL)
- binding [46]: no binding (tested: 1 µg/mL)
- binding [47]: no binding (tested: 1 µg/mL)
- binding [48]: no binding (tested: 1 µg/mL)

B2: anti-PDGF-C antibody 5H7 (antibody, IgG1, V domains shown)
VH: EVQLVESGGDLVKPGGSLKLSCAASGFTFSSYGMSWVRQTPDKRLEWVATIGYGGSFTYYPDSMKGRFTISRDNAKNTLFLQMSSLKSEDTAIYYCVRQAPLWDYFDYWGQGTTLTVSS
VL: B1 VL with N26S, S28T, N33D, D35T, P45A, N50K
notes: Mouse monoclonal from hybridoma, IgG1, kappa; also called mAb 5H7; hybridoma LMBP 9485CB
- binding [1]: binds
- binding [2]: no binding (tested: 1 µg/mL)
- binding [3]: no binding (tested: 1 µg/mL)
- binding [4]: no binding (tested: 1 µg/mL)
- binding [5]: no binding (tested: 1 µg/mL)
- binding [6]: no binding (tested: 1 µg/mL)
- binding [7]: no binding (tested: 1 µg/mL)
- binding [8]: no binding (tested: 1 µg/mL)
- binding [9]: no binding (tested: 1 µg/mL)
- binding [10]: no binding (tested: 1 µg/mL)
- binding [11]: no binding (tested: 1 µg/mL)
- binding [12]: no binding (tested: 1 µg/mL)
- binding [13]: no binding (tested: 1 µg/mL)
- binding [14]: no binding (tested: 1 µg/mL)
- binding [15]: no binding (tested: 1 µg/mL)
- binding [16]: no binding (tested: 1 µg/mL)
- binding [17]: no binding (tested: 1 µg/mL)
- binding [18]: no binding (tested: 1 µg/mL)
- binding [19]: no binding (tested: 1 µg/mL)
- binding [20]: no binding (tested: 1 µg/mL)
- binding [21]: no binding (tested: 1 µg/mL)
- binding [22]: no binding (tested: 1 µg/mL)
- binding [23]: no binding (tested: 1 µg/mL)
- binding [24]: no binding (tested: 1 µg/mL)
- binding [25]: no binding (tested: 1 µg/mL)
- binding [26]: no binding (tested: 1 µg/mL)
- binding [27]: no binding (tested: 1 µg/mL)
- binding [28]: no binding (tested: 1 µg/mL)
- binding [29]: no binding (tested: 1 µg/mL)
- binding [30]: no binding (tested: 1 µg/mL)
- binding [31]: no binding (tested: 1 µg/mL)
- binding [32]: no binding (tested: 1 µg/mL)
- binding [33]: no binding (tested: 1 µg/mL)
- binding [34]: no binding (tested: 1 µg/mL)
- binding [35]: no binding (tested: 1 µg/mL)
- binding [36]: no binding (tested: 1 µg/mL)
- binding [37]: no binding (tested: 1 µg/mL)
- binding [38]: no binding (tested: 1 µg/mL)
- binding [39]: no binding (tested: 1 µg/mL)
- binding [40]: no binding (tested: 1 µg/mL)
- binding [41]: no binding (tested: 1 µg/mL)
- binding [42]: no binding (tested: 1 µg/mL)
- binding [43]: no binding (tested: 1 µg/mL)
- binding [44]: no binding (tested: 1 µg/mL)
- binding [45]: no binding (tested: 1 µg/mL)
- binding [46]: no binding (tested: 1 µg/mL)
- binding [47]: no binding (tested: 1 µg/mL)
- binding [48]: no binding (tested: 1 µg/mL)
